{"source": "PubChem BioAssay AID1508597 (Cure First, 2020)", "screen": "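Genes whose silencing sensitises or protects ovarian cancer cells against rucaparib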 (primary screen)", "cell system": "human ovarian carcinoma lines grown from tumours: OCI-P5x (papillary serous) and OCI-C5x (clear cell)", "reagents": "siRNA pool against human genes, 1.25 pmol siRNA per well", "time to read-out": "72 h or 96 h, depending on the cell culture", "conditions": "rucaparib 20 µM (about IC30) or vehicle, present until read-out", "rucaparib or vehicle": "Vehicle", "cell line": "OCI-C5x (clear cell)", "measurement": "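Luminescent ATP-based viability assay read 72 or 96 h after transfection, depending on culture, given as normalised percent viability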", "direction": "viability, normalised: higher = more viable cells remaining", "active means": "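Active when normalised viability falls below 80 percent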", "calls": "active = viability under 80%; inactive = viability 80% or more", "note": "This is a random part of the about 2,100 reagents, in one setting of the screen. 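Calls flag viability under 80% in either arm, not effects specific to rucaparib; the reference for percent is not stated.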 Some reagents were tested in more than one well and are listed for each. Reagent sequences are not shown. The record does not give: the 100% reference."}
{"gene": "INSRR", "PubChem SID": "SID405528545", "technical replicate": "1", "viability, normalised (%)": 56.8, "activity call": "active"}
{"gene": "INSRR", "PubChem SID": "SID405528545", "technical replicate": "2", "viability, normalised (%)": 42.4, "activity call": "active"}
{"gene": "INSRR", "PubChem SID": "SID405528545", "technical replicate": "3", "viability, normalised (%)": 53.5, "activity call": "active"}
{"gene": "MACROD2", "PubChem SID": "SID405526964", "technical replicate": "1", "viability, normalised (%)": 44.6, "activity call": "active"}
{"gene": "MACROD2", "PubChem SID": "SID405526964", "technical replicate": "2", "viability, normalised (%)": 67.4, "activity call": "active"}
{"gene": "MACROD2", "PubChem SID": "SID405526964", "technical replicate": "3", "viability, normalised (%)": 75.3, "activity call": "active"}
{"gene": "ELOA3P", "PubChem SID": "SID405527464", "technical replicate": "1", "viability, normalised (%)": 58.7, "activity call": "active"}
{"gene": "ELOA3P", "PubChem SID": "SID405527464", "technical replicate": "2", "viability, normalised (%)": 45.8, "activity call": "active"}
{"gene": "ELOA3P", "PubChem SID": "SID405527464", "technical replicate": "3", "viability, normalised (%)": 42.2, "activity call": "active"}
{"gene": "PRKACG", "PubChem SID": "SID405527439", "technical replicate": "1", "viability, normalised (%)": 71.8, "activity call": "active"}
{"gene": "PRKACG", "PubChem SID": "SID405527439", "technical replicate": "2", "viability, normalised (%)": 55.9, "activity call": "active"}
{"gene": "PRKACG", "PubChem SID": "SID405527439", "technical replicate": "3", "viability, normalised (%)": 78.8, "activity call": "active"}
{"gene": "CDH2", "PubChem SID": "SID405528085", "technical replicate": "1", "viability, normalised (%)": 58.4, "activity call": "active"}
{"gene": "CDH2", "PubChem SID": "SID405528085", "technical replicate": "2", "viability, normalised (%)": 57.4, "activity call": "active"}
{"gene": "CDH2", "PubChem SID": "SID405528085", "technical replicate": "3", "viability, normalised (%)": 53.3, "activity call": "active"}
{"gene": "HDAC2", "PubChem SID": "SID405526840", "technical replicate": "1", "viability, normalised (%)": 55.1, "activity call": "active"}
{"gene": "HDAC2", "PubChem SID": "SID405526840", "technical replicate": "1", "viability, normalised (%)": 41.1, "activity call": "active"}
{"gene": "HDAC2", "PubChem SID": "SID405526840", "technical replicate": "2", "viability, normalised (%)": 49.5, "activity call": "active"}
{"gene": "HDAC2", "PubChem SID": "SID405526840", "technical replicate": "2", "viability, normalised (%)": 50.4, "activity call": "active"}
{"gene": "HDAC2", "PubChem SID": "SID405526840", "technical replicate": "3", "viability, normalised (%)": 57.3, "activity call": "active"}
{"gene": "HDAC2", "PubChem SID": "SID405526840", "technical replicate": "3", "viability, normalised (%)": 45.4, "activity call": "active"}
{"gene": "RAD18", "PubChem SID": "SID405528501", "technical replicate": "1", "viability, normalised (%)": 62.5, "activity call": "active"}
{"gene": "RAD18", "PubChem SID": "SID405528501", "technical replicate": "1", "viability, normalised (%)": 79.6, "activity call": "active"}
{"gene": "RAD18", "PubChem SID": "SID405528501", "technical replicate": "2", "viability, normalised (%)": 50.2, "activity call": "active"}
{"gene": "RAD18", "PubChem SID": "SID405528501", "technical replicate": "2", "viability, normalised (%)": 69.4, "activity call": "active"}
{"gene": "RAD18", "PubChem SID": "SID405528501", "technical replicate": "3", "viability, normalised (%)": 42.9, "activity call": "active"}
{"gene": "RAD18", "PubChem SID": "SID405528501", "technical replicate": "3", "viability, normalised (%)": 68.9, "activity call": "active"}
{"gene": "CDT1", "PubChem SID": "SID405528087", "technical replicate": "1", "viability, normalised (%)": 34.7, "activity call": "active"}
{"gene": "CDT1", "PubChem SID": "SID405528087", "technical replicate": "2", "viability, normalised (%)": 49.5, "activity call": "active"}
{"gene": "CDT1", "PubChem SID": "SID405528087", "technical replicate": "3", "viability, normalised (%)": 46.5, "activity call": "active"}
{"gene": "EIF2AK2", "PubChem SID": "SID405527481", "technical replicate": "1", "viability, normalised (%)": 29.8, "activity call": "active"}
{"gene": "EIF2AK2", "PubChem SID": "SID405527481", "technical replicate": "2", "viability, normalised (%)": 40.8, "activity call": "active"}
{"gene": "EIF2AK2", "PubChem SID": "SID405527481", "technical replicate": "3", "viability, normalised (%)": 40.2, "activity call": "active"}
{"gene": "EEF2K", "PubChem SID": "SID405528532", "technical replicate": "1", "viability, normalised (%)": 63.4, "activity call": "active"}
{"gene": "EEF2K", "PubChem SID": "SID405528532", "technical replicate": "2", "viability, normalised (%)": 51.2, "activity call": "active"}
{"gene": "EEF2K", "PubChem SID": "SID405528532", "technical replicate": "3", "viability, normalised (%)": 63.5, "activity call": "active"}
{"gene": "TCF20", "PubChem SID": "SID405526538", "technical replicate": "1", "viability, normalised (%)": 19.1, "activity call": "active"}
{"gene": "TCF20", "PubChem SID": "SID405526538", "technical replicate": "2", "viability, normalised (%)": 54.5, "activity call": "active"}
{"gene": "TCF20", "PubChem SID": "SID405526538", "technical replicate": "3", "viability, normalised (%)": 49, "activity call": "active"}
{"gene": "PRDM11", "PubChem SID": "SID405527181", "technical replicate": "1", "viability, normalised (%)": 40.6, "activity call": "active"}
{"gene": "PRDM11", "PubChem SID": "SID405527181", "technical replicate": "2", "viability, normalised (%)": 40.7, "activity call": "active"}
{"gene": "PRDM11", "PubChem SID": "SID405527181", "technical replicate": "3", "viability, normalised (%)": 36.7, "activity call": "active"}

Individual results from above.
PRKACG [SID405527439], technical replicate 3, viability, normalised (%) → 78.8
Entry of TCF20 [SID405526538], technical replicate 3 in “viability, normalised (%)”: 49
EIF2AK2 [SID405527481], technical replicate 2, viability, normalised (%) → 40.8
Entry of MACROD2 [SID405526964], technical replicate 2 in “activity call”: active
PRDM11 [SID405527181], technical replicate 1, activity call = active
ELOA3P [SID405527464], technical replicate 2, viability, normalised (%): 45.8
